Results from PMC7819943, “Rice protein-binding microarrays: a tool to detect cis-acting elements near promoter regions in rice”.
This is one part of the list.

These sequences were tested against T1, OsSMF1 (Oryza sativa, UniProt Q6ZLB0 1-436) (assay: protein-binding microarray (RPBM); PBS, 2% BSA, 51.3 ng/ul salmon testes DNA, 50 uM zinc acetate, 200 nM TF, 25 C, 1 h; high values mean tight binding). Conditions: protein: recombinant; tags: N-terminal polyhistidine and DsRed monomer fusion (pET32a); chain copies: 2; label: CyDye5-dUTP incorporated in the synthesized complementary strand; 3' TTTTT single-stranded linker to array surface; dsDNA, one strand shown.
T1 sequence: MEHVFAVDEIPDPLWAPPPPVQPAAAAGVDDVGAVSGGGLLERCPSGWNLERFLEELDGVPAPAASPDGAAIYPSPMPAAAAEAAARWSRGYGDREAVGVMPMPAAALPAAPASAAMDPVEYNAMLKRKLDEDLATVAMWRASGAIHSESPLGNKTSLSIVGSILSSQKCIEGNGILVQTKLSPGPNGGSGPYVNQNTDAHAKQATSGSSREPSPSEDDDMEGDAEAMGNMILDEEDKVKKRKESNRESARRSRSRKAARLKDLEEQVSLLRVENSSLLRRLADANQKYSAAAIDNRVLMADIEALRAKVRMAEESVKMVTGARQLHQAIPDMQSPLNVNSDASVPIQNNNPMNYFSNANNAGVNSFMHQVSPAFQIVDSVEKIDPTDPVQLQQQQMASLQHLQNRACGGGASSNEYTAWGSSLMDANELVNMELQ
Summary of the method: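 An Axon 4000B scanner gave the binding signal as per-feature fluorescence intensity in arbitrary units. This followed washing of a custom Agilent array that had been incubated for 1 h at 25 °C with 200 nM protein in PBS, 2% BSA, salmon testes DNA and 50 µM zinc acetate. The proteins were transcription factors fused at the N-terminus to polyhistidine and DsRed, expressed in E. coli BL21-CodonPlus and purified on Ni–NTA.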
In the case of “GCAAAAGATGTGTCACGCATTCCAACCCAAATTCTGCGGTCGGAGTCACCTAGTGCAG”, the binding signal is reported as 3360 fluorescence intensity (a.u.). For “ATTGGATGCATTGTCTCGCTGTGACAGGCCTTCTCCTAGACGGAGTCACCTAGTGCAG”, the binding signal was 3380 fluorescence intensity (a.u.). In the case of “CTCCGTGAGCCCTTCCTCCTCCGCTCCTCTCCTTTCCGCCCGGAGTCACCTAGTGCAG”, the binding signal is reported as 15600 fluorescence intensity (a.u.). For “GGATCCCCTTCCCACGCGTCCCTCCTCCTCCCTTCGTCCACGGAGTCACCTAGTGCAG”, the binding signal was 3760 fluorescence intensity (a.u.). In the case of “CGTGCTCTCCGGCCTCATCAACGAGGTCACGCCGCCGTGGCGGAGTCACCTAGTGCAG”, the binding signal is reported as 3380 fluorescence intensity (a.u.). In the case of “CGATTCGAAATCTGCCACGCTTTATTCCCGCCATCTCATTCGGAGTCACCTAGTGCAG”, the binding signal is reported as 4280 fluorescence intensity (a.u.). With “AATATAAGGTTGTTTCTGCCTTCTGGATTGCTGGACTGAACGGAGTCACCTAGTGCAG” the binding signal was 3400 fluorescence intensity (a.u.). With “GAGGACGAGCGGGCGGACGGAGTCGGGGTGCGCGGCGAGGCGGAGTCACCTAGTGCAG” the binding signal was 27000 fluorescence intensity (a.u.). “GGCCAAGTGGTGGTGACTGGTGAGAGAAGCGAGGTAGGGTCGGAGTCACCTAGTGCAG” was tested, and the binding signal was 4190 fluorescence intensity (a.u.). “CCAGACGCACGAATGCATGACTCAGGTCCAGTTCTTTTCTCGGAGTCACCTAGTGCAG” was tested, and the binding signal was 6510 fluorescence intensity (a.u.). With “CATGTATCTAATTAACCCAATTTCCAACGGCACCCAGCTGCGGAGTCACCTAGTGCAG” the binding signal was 3470 fluorescence intensity (a.u.). For “AAATTCAAACTGTGACTCCCCGTGATCTTGACTTGCTGTTCGGAGTCACCTAGTGCAG”, the binding signal was 3250 fluorescence intensity (a.u.). In the case of “GACCTCTTGCTAACTTTCCTTCAAAATGTATATAGAATTACGGAGTCACCTAGTGCAG”, the binding signal is reported as 29000 fluorescence intensity (a.u.). “GGTTGTATTACCTAACCCAGTCTGACTCGGACTTAGCCGACGGAGTCACCTAGTGCAG” was tested, and the binding signal was 8700 fluorescence intensity (a.u.). For “TACCTAGGTTTGTGCGTCATTGTGTATTTTACTCATCCTGCGGAGTCACCTAGTGCAG”, the binding signal was 5710 fluorescence intensity (a.u.). With “ACATCTAAACAGTAACCGTGAACAGTAGCGCGTGACTCGGCGGAGTCACCTAGTGCAG” the binding signal was 32500 fluorescence intensity (a.u.). With “CTTTTGCTCACATGGCGTGCCACCGTGGCGTGCCCGCATGCGGAGTCACCTAGTGCAG” the binding signal was 16200 fluorescence intensity (a.u.). In the case of “GAAACGAACTCAGCCTACGTCAGTTGTGAAATGTGAATTCCGGAGTCACCTAGTGCAG”, the binding signal is reported as 3580 fluorescence intensity (a.u.). With “AGGGAGGAGGGGAATTCGTACTCAGTAGTTTCCGGGCTTTCGGAGTCACCTAGTGCAG” the binding signal was 3150 fluorescence intensity (a.u.). “ACGCCCGCGGCTCACTGACATGCCGGACGTCGCTTTGGCCCGGAGTCACCTAGTGCAG” was tested, and the binding signal was 3280 fluorescence intensity (a.u.). “AGAAGTGTTCTACTACTAGTACTATATATGATCAGTTATTCGGAGTCACCTAGTGCAG” was tested, and the binding signal was 33900 fluorescence intensity (a.u.). For “GGGGCCCACGCGTCGGCGTTGCGCGGATTTGTCGGCGGTGCGGAGTCACCTAGTGCAG”, the binding signal was 19800 fluorescence intensity (a.u.). For “CCACAATCAATTTGACGTCGCCCCTATTTATGTCCTGCCTCGGAGTCACCTAGTGCAG”, the binding signal was 3210 fluorescence intensity (a.u.). With “TCTGGCCAATTCCTTCCCACTCCCACACGTGTTCATAGTGCGGAGTCACCTAGTGCAG” the binding signal was 6200 fluorescence intensity (a.u.). “TGGCGTGATTGCAATTTGCAGTTTGTCCCTTTTGACATATCGGAGTCACCTAGTGCAG” was tested, and the binding signal was 3220 fluorescence intensity (a.u.). For “TCAGGTGAAATCTGCTTCAGCCATATTCATTGGTAATCAGCGGAGTCACCTAGTGCAG”, the binding signal was 3600 fluorescence intensity (a.u.). In the case of “CTGGCGGCTGGCTCTGCTCGGCGTCTTTGCGCCTTGTCATCGGAGTCACCTAGTGCAG”, the binding signal is reported as 3340 fluorescence intensity (a.u.). With “CTGGCGGCGAGTGACCGGGAGGTGGACCCCACGTGGCCCACGGAGTCACCTAGTGCAG” the binding signal was 5720 fluorescence intensity (a.u.). In the case of “CATTGTGTAGTACTCTCTTTGCATTGCAGCTGTACAATTGCGGAGTCACCTAGTGCAG”, the binding signal is reported as 3150 fluorescence intensity (a.u.). “CCGGCTCACGCGCGCCGGCGGGATCCACGCGTCGTCGCCGCGGAGTCACCTAGTGCAG” was tested, and the binding signal was 3510 fluorescence intensity (a.u.). In the case of “CAGTATCTACGCCCATGCCACGCAAGCACGGACCGCCACCCGGAGTCACCTAGTGCAG”, the binding signal is reported as 18200 fluorescence intensity (a.u.). In the case of “CACCGGCCAAACACCGCGCGGTCACTCACACGGACCGCACCGGAGTCACCTAGTGCAG”, the binding signal is reported as 3340 fluorescence intensity (a.u.). For “TTGAGCCGTTGAACAGCTCGTCTACACGTCATGGGAATAGCGGAGTCACCTAGTGCAG”, the binding signal was 10000 fluorescence intensity (a.u.). “GAAAATTGACCATAGGCGTGACGAGTCACGTCGGTACAGGCGGAGTCACCTAGTGCAG” was tested, and the binding signal was 5310 fluorescence intensity (a.u.). With “TATAGTTAGGGGACCCCATATCTCGTATTGCGGTTGGAGGCGGAGTCACCTAGTGCAG” the binding signal was 8080 fluorescence intensity (a.u.). With “TCTTCGTGCTGACTCTATCGCGCTCTCTCTCTCCCATCTTCGGAGTCACCTAGTGCAG” the binding signal was 6580 fluorescence intensity (a.u.). “ACACCATTGACACGTTTGCTTATTCAGATTGTGGTTCATGCGGAGTCACCTAGTGCAG” was tested, and the binding signal was 8850 fluorescence intensity (a.u.). In the case of “GCTGCGCCGCCATGAGCGCCCGCGTCATTCCGTCCCATCGCGGAGTCACCTAGTGCAG”, the binding signal is reported as 5610 fluorescence intensity (a.u.). In the case of “GACTCGACTCGCATTGCGCCTGTGCTGTGCTGTGGTGGTGCGGAGTCACCTAGTGCAG”, the binding signal is reported as 3400 fluorescence intensity (a.u.). In the case of “CGCCCCTGATTACTCCAGTGATCTGGCACACATTCTATTTCGGAGTCACCTAGTGCAG”, the binding signal is reported as 4850 fluorescence intensity (a.u.). “GTCGCTGGATGGGTGGCACGGGAGCGGCGGCGTCAGAGCACGGAGTCACCTAGTGCAG” was tested, and the binding signal was 3270 fluorescence intensity (a.u.). “AAATTGTACCTCACCGAGTCACCGTCCTCGCTGATGGCATCGGAGTCACCTAGTGCAG” was tested, and the binding signal was 4580 fluorescence intensity (a.u.).
